Laboratory results: PubChem BioAssay AID720505 (Drosophila RNAi Screening Center, 2013)
In all, the deposit lists about 20,000 reagents; shown is a random part of those with a known target gene and a result. Of all reagents, about 2,100 (10%) are marked active. 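Raw plate signals without normalisation; calls rest on control-based scores that were not deposited; replicate 2 separates called from uncalled poorly.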 A plus sign joins genes that one reagent is predicted to hit. The record does not give: the amount of reagent, the time to read-out.

Test: 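Knock-downs that reduce calcium influx once internal stores are emptied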 (primary screen)
Cell system: Drosophila S2R+ cells
Reagent: long dsRNA against Drosophila genes
Treatment: thapsigargin (2 µM) in calcium-free buffer to empty internal stores, then 2 mM calcium added back
Read-out: 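Fluo-4 signal in 384-well plates read on a FLIPR after thapsigargin (2 µM, calcium-free) store depletion and 2 mM calcium add-back; unnormalised mean endpoint per well; screen run twice, selected wells retested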
Direction: calcium signal: higher = more calcium entry after store depletion
Call rule: 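Knock-downs counted as hits when calcium entry dropped relative to STIM1 positive and Rho1 negative controls present on each plate; roughly 1500 genes called, with reductions of differing size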
Calls: active = called as lowering calcium entry; inactive = not called

For CR33319 (pseudo) [SID104181618], what was measured?
calcium signal, replicate 1: 126; calcium signal, replicate 2: 9159; call: inactive

What did the screen give for Fas2 (Fasciclin 2) [SID104198456]?
calcium signal, replicate 1: 121; calcium signal, replicate 2: 145; call: inactive

With CG8195 [SID104186895], what was measured?
calcium signal, replicate 1: 135; calcium signal, replicate 2: 102; call: inactive

How did the screen score CG32706 + CG6999 [SID104198204]?
calcium signal, replicate 1: 86.5; calcium signal, replicate 2: 108; call: inactive

What is on record for sub (subito) [SID104185917]?
calcium signal, replicate 1: 150; calcium signal, replicate 2: 98.2; call: inactive

For CG31463 [SID104194138], what does the deposit list?
calcium signal, replicate 1: 93.5; calcium signal, replicate 2: 174; call: inactive

What is on record for CG8034 [SID104199868]?
calcium signal, replicate 1: 177; calcium signal, replicate 2: 114; call: inactive

How did the screen score Usp10 (Ubiquitin specific protease 10) [SID104188074]?
calcium signal, replicate 1: 97.2; calcium signal, replicate 2: 117; call: inactive

Which result is listed for Usp10 (Ubiquitin specific protease 10) [SID104188165]?
calcium signal, replicate 1: 78.5; calcium signal, replicate 2: 97.5; call: inactive

What is on record for MTA1-like (Metastasis associated 1-like) [SID104192174]?
calcium signal, replicate 1: 158; calcium signal, replicate 2: 167; call: inactive

What did the screen give for MTA1-like (Metastasis associated 1-like) [SID104201608]?
calcium signal, replicate 1: 72.4; calcium signal, replicate 2: 152; call: inactive

What did the screen give for Capr (Caprin) [SID104190138]?
calcium signal, replicate 1: 65.5; calcium signal, replicate 2: 164; call: inactive

A portion from the list above:
Usp10 (Ubiquitin specific protease 10) [SID104188165] | calcium signal, replicate 1 = 78.5; calcium signal, replicate 2 = 97.5; call = inactive
MTA1-like (Metastasis associated 1-like) [SID104192174] | calcium signal, replicate 1 = 158; calcium signal, replicate 2 = 167; call = inactive
